Measured values from PubChem BioAssay (NCATS).
The inconclusive results got no clear call from the source; some entries with a clear call stand among them for comparison. Potencies of inconclusive entries are doubtful fits and often do not repeat. The source made the active and inactive calls. Unless noted, calls follow the shape of the dose curve; as a rule, active = well fitted curve in the direction sought with a large enough effect; inconclusive = small, poorly fitted or top-dose-only effect, or another doubt; inactive = no such curve, though single readings can be large; an effect the other way counts as inactive or inconclusive.

Legend:
[1] = Quantitative High-Throughput drug screen in 47 multiple myeloma cell lines against the NCATS MIPE library collection: UTMC2_PLB cell viability assay (AID 1919868); conditions: CellTiter-Glo ATP luminescence, 48 h; series mostly up to 45.8 µM; also: nearly all actives have a fitted effect of over 55% in size
Procedure, shortened: (§1)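 Myeloma cells (500/well) treated with MIPE 4.0 compounds for 48 h at 37 °C, 5% CO2. Viability read as ATP via CellTiter-Glo luminescence after 5 min at RT; DMSO-only wells = 100%, media-only = 0% viability.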

[2] = Quantitative High-Throughput drug screen in 47 multiple myeloma cell lines against the NCATS MIPE library collection: PE2_PLB cell viability assay (AID 1919869); conditions: PE2_PLB myeloma cells viability, ATP luminescence, 48 h; viability (% of control): at 45.8 µM (top of the series); also: nearly all actives have a fitted effect of over 35% in size
Procedure, shortened: as §1

[3] = qHTS for identification of novel therapeutic agents for treatment of microphthalmiaassociated transcription factor (MiT) renal cell carcinoma (RCC) (AID 1963991; calls by dose curve); conditions: TFE3-RCC UOK109 viability, CellTiter-Glo, 48 h; active = Z-AUC below -0.8 in all three lines
Procedure, shortened: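 Three TFE3-fusion RCC lines (UOK109, UOK124, UOK145), 500 cells/well in complete medium, were treated with MIPE 4.0 compounds for 48 hours at 37 C. Viability was by CellTiter-Glo luminescence, normalized to DMSO (100%) and empty wells (0%); curves fitted over 11 concentrations.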

[4] = Quantitative High-Throughput drug screen in 47 multiple myeloma cell lines against the NCATS MIPE library collection: RPMI8226_ATCC cell viability assay (AID 1919871); also: nearly all actives have a fitted effect of over 30% in size
Procedure, shortened: as §1

[5] = Quantitative High-Throughput drug screen in 47 multiple myeloma cell lines against the NCATS MIPE library collection: KMS28BM_JCRB cell viability assay (AID 1919874); also: nearly all actives have a fitted effect of over 35% in size
Procedure, shortened: as §1

[6] = Quantitative High-Throughput drug screen in 47 multiple myeloma cell lines against the NCATS MIPE library collection: KMS11_JCRBsus cell viability assay (AID 1919873); conditions: KMS11 myeloma viability, CellTiter-Glo ATP luminescence, 48 h; viability (% of control): at 45.8 µM (top of the series); also: nearly all actives have a fitted effect of over 50% in size
Procedure, shortened: as §1

[7] = Quantitative High-Throughput drug screen in 47 multiple myeloma cell lines against the NCATS MIPE library collection: OPM2_DSMZ cell viability assay (AID 1919872); also: nearly all actives have a fitted effect of over 30% in size
Procedure, shortened: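 Luminescent ATP measurement with CellTiter-Glo gives viability, scaled between DMSO-only wells (100%) and media-only wells (0%). Cells, 500 per well, faced library compounds for 48 hours at 37C.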

[8] = qHTS profiling for inhibitors of Plasmodium falciparum proliferation (AID 504749); also: nearly all actives have a fitted effect of over 60% in size; conditions: P. falciparum in erythrocytes, SYBR Green DNA, 72 h; Potency: parasite line B unless noted; series mostly up to 28.7 µM
Procedure, shortened: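 P. falciparum-infected erythrocytes (0.3% parasitemia, 2.5% hematocrit final) were exposed to compounds for 72 h at 37 C in 5% CO2, then lysed with SYBR Green buffer overnight at room temperature; parasite DNA fluorescence was normalized to artemisinin and DMSO controls.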
Potency is read from the fitted curve at half-maximal effect.

Structure (SMILES): CC(=O)Oc1ccccc1C(=O)O
- Potency [1]: inconclusive: 18.7 µM [rising, partial curve, poor fit]
- Potency [2]: inconclusive: 6.62 µM [cytotoxic, single point]
- Potency [3]: inconclusive: 18.7 µM [falling, partial curve]

Structure (SMILES): CC(=O)Nc1ccc([C@H](C)C(=O)Nc2ncc(C(C)C)s2)cc1
- Potency [1]: active: 3.72 µM
- Potency [4]: active: 2.64 µM
- Potency [5]: inconclusive: 1.32 µM [cytotoxic, full curve, poor fit]
- Potency [3]: inconclusive: 1.48 µM [falling, full curve]

Structure (SMILES): Cc1ccc(C)c(OCCCC(C)(C)C(=O)O)c1
- Potency [1]: inconclusive: 23.5 µM [cytotoxic, partial curve, poor fit]
- Potency [2]: inconclusive: 20.9 µM [cytotoxic, partial curve]
- Potency [6]: inactive
- Potency [3]: inconclusive: 37.2 µM [falling, single point]

Structure (SMILES): CC(C)(O)c1cc2nc(-c3cnc(N)nc3)nc(N3CCOCC3)c2s1
- Potency [1]: inconclusive: 0.132 µM [cytotoxic, full curve, poor fit]
- Potency [4]: active: 0.0469 µM
- Potency [7]: active: 0.187 µM
- Potency [3]: active: 0.0332 µM

Structure (SMILES): O=c1[nH]cc(F)c(=O)[nH]1
- Potency [1]: inactive
- Potency [7]: inactive
- Potency [5]: inactive
- Potency [3]: inconclusive: 11.8 µM [falling, partial curve, poor fit]
- Potency [8]: inconclusive: 17.8 µM [inhibitor, single point] [parasite line A]

Structure (SMILES): COc1ccc(-c2cc(=O)c3c(O)cc(O)cc3o2)cc1O
- Potency [1]: active: 8.33 µM
- Potency [5]: inactive
- Potency [3]: inconclusive: 5.26 µM [falling, full curve]

Structure (SMILES): CCCCCCCCCCCCCCCC(=O)NCCO
- Potency [8]: inactive

Structure (SMILES): c1ccc2sc(SN3CCOCC3)nc2c1
- Potency [8]: inconclusive: 17.8 µM [inhibitor, single point]

Structure (SMILES): c1ccc2sc(SSc3nc4ccccc4s3)nc2c1
- Potency [8]: inactive

Structure (SMILES): O=C1Cc2cc(CCN3CCN(c4nsc5ccccc45)CC3)c(Cl)cc2N1
- Potency [2]: active: 18.7 µM
- Potency [4]: active: 20.9 µM
- Potency [7]: inconclusive: 37.2 µM [cytotoxic, single point]
- Potency [6]: inconclusive: 26.4 µM [cytotoxic, single point]
- Potency [3]: inconclusive: 14.8 µM

Structure (SMILES): CCN1/C(=C/C=C/c2sc3ccccc3[n+]2CC)Sc2ccccc21
- Potency [8]: active: 0.0891 µM [parasite line A]

Structure (SMILES): CC(=O)O[C@]1(C(C)=O)CC[C@H]2[C@@H]3C=C(C)C4=CC(=O)CC[C@]4(C)[C@@H]3CC[C@@]21C
- Potency [2]: inconclusive: 9.35 µM [cytotoxic, single point]
- Potency [6]: inactive
- Potency [3]: inconclusive: 5.9 µM [falling, full curve]

Structure (SMILES): COc1cc2c(Oc3ccc(NC(=O)C4(C(=O)Nc5ccc(F)cc5)CC4)cc3F)ccnc2cc1OCCCN1CCOCC1
- Potency [3]: inconclusive: 16.6 µM [falling, partial curve]

Structure (SMILES): O=c1c(O)c(-c2ccc(O)c(O)c2)oc2cc(O)ccc12
- Potency [4]: inconclusive: 14.8 µM [cytotoxic, partial curve, poor fit]
- Potency [6]: inconclusive: 20.9 µM [cytotoxic, partial curve, poor fit]
- Potency [5]: inconclusive: 33.2 µM [cytotoxic, single point]
- Potency [3]: inconclusive: 18.7 µM [falling, partial curve]

Structure (SMILES): O=C(O)Cc1ccc(-c2ccccc2)cc1
- Potency [8]: inactive

Structure (SMILES): COc1ccc2cc(CCC(C)=O)ccc2c1
- Potency [8]: inactive

Structure (SMILES): CC(=O)Oc1cccc2c1C(=O)c1c(OC(C)=O)cc(C(=O)O)cc1C2=O
- Potency [8]: inconclusive: 14.1 µM [inhibitor, partial curve, poor fit] [parasite line A]

Structure (SMILES): CCC(=C(CC)c1ccc(O)cc1)c1ccc(O)cc1
- Potency [5]: active: 16.6 µM
- Potency [3]: inconclusive: 20.9 µM [falling, partial curve]

Structure (SMILES): O=c1[nH]c2ccccc2n1CCCN1CCN(C(c2ccccc2)c2ccccc2)CC1
- Potency [8]: inconclusive: 17.8 µM [inhibitor, single point]

Structure (SMILES): Nc1ccc(O)c(C(=O)O)c1
- Potency [8]: inactive

Structure (SMILES): CCOc1ccc2nc(S(N)(=O)=O)sc2c1
- Potency [8]: inconclusive: 17.8 µM [inhibitor, single point]

Structure (SMILES): OCc1cc(C(O)CNCCCCCCOCCCCc2ccccc2)ccc1O (centres undefined)
- Potency [8]: inconclusive: 17.8 µM [inhibitor, single point] [parasite line A]
